The list shows a part of the results.

Amino acid sequences for entries named in this document (tags omitted). A change or cut given only in a name is not applied to a line headed by its entry.
UniProt Q9BTE3: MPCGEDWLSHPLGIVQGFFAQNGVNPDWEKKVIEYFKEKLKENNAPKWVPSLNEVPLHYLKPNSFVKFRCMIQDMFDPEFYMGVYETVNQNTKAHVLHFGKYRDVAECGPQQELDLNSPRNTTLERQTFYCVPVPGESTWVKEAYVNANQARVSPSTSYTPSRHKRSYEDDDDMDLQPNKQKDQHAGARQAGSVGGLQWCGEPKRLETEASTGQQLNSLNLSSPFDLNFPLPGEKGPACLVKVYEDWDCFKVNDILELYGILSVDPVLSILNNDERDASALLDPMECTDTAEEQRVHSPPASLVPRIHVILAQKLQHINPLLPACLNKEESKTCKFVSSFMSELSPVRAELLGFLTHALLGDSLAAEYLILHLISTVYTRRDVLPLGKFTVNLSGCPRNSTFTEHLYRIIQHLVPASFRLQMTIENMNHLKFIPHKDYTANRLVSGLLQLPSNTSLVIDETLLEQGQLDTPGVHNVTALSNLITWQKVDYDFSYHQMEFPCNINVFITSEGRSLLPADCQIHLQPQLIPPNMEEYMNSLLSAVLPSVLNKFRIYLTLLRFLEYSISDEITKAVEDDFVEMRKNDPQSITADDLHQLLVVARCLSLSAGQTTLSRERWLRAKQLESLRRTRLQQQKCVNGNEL
UniProt Q9H944: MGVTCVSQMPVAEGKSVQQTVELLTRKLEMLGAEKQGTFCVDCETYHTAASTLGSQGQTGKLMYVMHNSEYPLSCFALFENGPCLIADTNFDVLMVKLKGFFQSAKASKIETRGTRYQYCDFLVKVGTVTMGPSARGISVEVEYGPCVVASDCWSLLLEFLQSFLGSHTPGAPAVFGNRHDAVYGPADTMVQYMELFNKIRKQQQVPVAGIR
UniProt Q9NRN9: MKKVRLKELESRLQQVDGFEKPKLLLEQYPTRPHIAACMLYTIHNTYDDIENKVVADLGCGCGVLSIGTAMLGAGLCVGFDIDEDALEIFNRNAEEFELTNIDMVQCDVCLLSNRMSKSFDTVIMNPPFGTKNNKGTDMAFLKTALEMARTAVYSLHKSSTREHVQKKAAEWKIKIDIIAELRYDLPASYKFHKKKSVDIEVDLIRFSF
UniProt P40926: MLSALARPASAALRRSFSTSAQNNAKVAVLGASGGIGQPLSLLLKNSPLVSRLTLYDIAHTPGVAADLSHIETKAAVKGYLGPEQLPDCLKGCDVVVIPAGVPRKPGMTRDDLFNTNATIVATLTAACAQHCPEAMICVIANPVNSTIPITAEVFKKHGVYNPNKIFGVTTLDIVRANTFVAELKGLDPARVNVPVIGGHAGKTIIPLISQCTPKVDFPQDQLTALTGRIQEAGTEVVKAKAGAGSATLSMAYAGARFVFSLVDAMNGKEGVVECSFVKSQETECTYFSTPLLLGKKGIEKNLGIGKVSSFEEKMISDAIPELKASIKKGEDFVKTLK
UniProt Q9HCE5: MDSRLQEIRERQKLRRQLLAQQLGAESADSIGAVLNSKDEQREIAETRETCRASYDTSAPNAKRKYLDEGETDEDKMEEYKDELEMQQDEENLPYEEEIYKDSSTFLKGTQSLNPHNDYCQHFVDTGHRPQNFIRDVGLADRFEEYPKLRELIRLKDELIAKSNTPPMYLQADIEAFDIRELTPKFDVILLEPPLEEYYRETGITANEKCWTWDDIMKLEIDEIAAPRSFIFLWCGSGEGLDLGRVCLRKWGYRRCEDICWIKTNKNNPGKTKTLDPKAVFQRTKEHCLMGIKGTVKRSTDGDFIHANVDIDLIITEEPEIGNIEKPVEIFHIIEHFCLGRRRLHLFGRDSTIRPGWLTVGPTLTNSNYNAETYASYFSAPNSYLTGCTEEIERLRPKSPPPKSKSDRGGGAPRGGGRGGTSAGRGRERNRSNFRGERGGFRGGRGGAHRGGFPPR
UniProt Q9BV79: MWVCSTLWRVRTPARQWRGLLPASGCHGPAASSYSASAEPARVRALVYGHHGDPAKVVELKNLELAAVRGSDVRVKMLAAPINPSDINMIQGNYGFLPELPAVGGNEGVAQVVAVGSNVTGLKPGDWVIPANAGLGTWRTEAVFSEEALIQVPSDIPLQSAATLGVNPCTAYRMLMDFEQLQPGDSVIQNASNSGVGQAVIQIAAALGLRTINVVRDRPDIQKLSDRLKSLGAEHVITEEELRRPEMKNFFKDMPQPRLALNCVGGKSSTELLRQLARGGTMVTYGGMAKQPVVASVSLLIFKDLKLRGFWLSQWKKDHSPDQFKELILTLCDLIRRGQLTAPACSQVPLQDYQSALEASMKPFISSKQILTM
UniProt Q07820, whole entry, looked up: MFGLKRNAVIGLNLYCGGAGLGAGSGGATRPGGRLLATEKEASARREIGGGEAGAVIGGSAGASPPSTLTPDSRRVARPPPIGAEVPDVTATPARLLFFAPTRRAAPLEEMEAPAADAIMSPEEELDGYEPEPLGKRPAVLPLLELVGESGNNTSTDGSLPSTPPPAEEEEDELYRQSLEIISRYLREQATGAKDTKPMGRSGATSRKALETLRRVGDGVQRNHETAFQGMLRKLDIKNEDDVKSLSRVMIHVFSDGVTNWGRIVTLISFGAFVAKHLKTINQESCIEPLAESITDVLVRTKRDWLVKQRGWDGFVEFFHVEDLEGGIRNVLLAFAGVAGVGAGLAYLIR
UniProt Q14566: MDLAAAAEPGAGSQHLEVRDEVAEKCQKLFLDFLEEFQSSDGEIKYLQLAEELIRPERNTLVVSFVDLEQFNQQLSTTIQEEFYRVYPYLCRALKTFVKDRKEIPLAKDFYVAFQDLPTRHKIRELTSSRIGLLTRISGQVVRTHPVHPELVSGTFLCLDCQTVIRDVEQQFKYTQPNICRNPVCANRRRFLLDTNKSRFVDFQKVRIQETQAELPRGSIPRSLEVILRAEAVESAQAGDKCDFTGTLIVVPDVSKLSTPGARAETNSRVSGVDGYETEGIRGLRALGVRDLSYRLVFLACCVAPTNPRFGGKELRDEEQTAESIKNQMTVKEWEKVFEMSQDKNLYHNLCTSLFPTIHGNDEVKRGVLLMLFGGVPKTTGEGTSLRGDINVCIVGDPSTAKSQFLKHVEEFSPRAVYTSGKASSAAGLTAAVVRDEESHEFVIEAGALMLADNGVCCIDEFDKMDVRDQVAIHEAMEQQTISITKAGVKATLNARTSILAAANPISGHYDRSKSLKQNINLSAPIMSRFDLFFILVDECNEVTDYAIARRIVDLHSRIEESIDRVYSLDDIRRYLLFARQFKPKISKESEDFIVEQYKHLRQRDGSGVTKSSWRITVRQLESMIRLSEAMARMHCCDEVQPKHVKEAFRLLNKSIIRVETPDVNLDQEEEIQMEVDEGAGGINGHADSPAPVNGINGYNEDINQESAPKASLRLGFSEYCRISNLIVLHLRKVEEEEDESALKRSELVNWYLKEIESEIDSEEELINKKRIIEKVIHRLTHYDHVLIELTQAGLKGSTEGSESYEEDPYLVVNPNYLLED
UniProt O43513: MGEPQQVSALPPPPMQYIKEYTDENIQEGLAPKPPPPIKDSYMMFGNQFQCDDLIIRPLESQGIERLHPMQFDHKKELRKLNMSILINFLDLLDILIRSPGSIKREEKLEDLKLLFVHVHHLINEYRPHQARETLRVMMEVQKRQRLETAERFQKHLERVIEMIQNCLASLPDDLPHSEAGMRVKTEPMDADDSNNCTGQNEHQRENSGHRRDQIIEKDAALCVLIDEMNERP
UniProt Q5TF39: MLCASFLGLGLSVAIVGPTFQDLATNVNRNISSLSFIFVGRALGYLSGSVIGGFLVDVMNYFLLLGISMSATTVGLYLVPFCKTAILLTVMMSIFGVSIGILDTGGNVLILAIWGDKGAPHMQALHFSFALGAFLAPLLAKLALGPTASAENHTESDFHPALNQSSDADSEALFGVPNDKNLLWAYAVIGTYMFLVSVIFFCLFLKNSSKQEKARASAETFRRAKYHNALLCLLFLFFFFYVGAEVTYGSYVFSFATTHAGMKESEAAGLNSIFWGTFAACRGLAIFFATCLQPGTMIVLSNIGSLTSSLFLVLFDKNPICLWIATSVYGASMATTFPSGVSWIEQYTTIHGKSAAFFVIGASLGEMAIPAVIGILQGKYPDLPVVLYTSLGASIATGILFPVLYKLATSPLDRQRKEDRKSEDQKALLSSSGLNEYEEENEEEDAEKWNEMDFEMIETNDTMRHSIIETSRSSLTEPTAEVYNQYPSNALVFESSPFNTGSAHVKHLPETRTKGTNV
UniProt P23368: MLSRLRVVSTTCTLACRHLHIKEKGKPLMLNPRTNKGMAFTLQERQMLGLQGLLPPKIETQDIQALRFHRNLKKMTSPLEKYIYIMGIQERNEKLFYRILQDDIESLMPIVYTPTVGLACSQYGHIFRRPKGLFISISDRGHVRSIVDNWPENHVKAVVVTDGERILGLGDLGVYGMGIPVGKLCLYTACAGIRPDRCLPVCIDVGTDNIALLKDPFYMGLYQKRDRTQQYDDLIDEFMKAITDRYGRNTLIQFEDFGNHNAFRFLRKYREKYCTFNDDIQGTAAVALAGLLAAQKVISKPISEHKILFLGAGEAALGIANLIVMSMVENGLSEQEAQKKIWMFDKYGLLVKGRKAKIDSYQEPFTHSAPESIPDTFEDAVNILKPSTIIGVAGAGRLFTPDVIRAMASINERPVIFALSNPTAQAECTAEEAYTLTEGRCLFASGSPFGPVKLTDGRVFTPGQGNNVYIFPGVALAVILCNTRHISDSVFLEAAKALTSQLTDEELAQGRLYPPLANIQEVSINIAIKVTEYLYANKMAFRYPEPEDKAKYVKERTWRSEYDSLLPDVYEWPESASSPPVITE
UniProt Q96G25: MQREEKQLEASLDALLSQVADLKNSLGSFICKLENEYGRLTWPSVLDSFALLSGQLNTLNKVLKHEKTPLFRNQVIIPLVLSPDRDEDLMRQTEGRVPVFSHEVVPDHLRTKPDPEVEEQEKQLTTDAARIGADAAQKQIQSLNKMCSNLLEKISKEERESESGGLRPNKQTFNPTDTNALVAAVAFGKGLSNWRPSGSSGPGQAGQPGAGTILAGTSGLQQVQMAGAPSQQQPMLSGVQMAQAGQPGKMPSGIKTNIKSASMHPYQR
UniProt Q9NPJ6: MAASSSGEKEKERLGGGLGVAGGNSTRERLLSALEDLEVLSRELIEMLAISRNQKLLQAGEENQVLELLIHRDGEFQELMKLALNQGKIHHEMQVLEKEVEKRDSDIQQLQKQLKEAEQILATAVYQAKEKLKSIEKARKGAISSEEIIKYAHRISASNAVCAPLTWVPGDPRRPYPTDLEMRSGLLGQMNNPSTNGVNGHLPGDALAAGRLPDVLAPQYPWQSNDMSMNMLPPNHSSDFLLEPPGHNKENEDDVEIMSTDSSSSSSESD
UniProt Q06413, whole entry, looked up: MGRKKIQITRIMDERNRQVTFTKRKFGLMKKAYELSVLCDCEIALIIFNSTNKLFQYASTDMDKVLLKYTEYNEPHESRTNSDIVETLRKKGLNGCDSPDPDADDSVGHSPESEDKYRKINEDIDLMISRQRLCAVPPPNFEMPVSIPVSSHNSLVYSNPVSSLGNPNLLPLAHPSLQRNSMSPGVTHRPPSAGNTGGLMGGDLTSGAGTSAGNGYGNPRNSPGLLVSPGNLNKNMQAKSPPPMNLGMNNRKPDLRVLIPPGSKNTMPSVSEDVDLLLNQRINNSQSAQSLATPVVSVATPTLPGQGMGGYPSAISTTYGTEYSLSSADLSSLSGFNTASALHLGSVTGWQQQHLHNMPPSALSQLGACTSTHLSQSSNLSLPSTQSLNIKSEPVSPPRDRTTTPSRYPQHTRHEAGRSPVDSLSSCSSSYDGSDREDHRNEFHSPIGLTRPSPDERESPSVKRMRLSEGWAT
UniProt Q96AQ8: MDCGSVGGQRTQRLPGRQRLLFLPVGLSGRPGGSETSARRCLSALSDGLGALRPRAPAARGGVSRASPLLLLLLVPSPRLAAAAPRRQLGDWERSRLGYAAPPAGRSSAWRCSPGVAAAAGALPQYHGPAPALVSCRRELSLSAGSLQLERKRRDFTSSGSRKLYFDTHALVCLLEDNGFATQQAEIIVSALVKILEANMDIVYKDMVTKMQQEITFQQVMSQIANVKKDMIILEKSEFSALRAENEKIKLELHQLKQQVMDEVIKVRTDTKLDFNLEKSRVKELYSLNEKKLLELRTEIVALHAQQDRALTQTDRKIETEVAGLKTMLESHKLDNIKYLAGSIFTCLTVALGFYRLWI
UniProt P50579: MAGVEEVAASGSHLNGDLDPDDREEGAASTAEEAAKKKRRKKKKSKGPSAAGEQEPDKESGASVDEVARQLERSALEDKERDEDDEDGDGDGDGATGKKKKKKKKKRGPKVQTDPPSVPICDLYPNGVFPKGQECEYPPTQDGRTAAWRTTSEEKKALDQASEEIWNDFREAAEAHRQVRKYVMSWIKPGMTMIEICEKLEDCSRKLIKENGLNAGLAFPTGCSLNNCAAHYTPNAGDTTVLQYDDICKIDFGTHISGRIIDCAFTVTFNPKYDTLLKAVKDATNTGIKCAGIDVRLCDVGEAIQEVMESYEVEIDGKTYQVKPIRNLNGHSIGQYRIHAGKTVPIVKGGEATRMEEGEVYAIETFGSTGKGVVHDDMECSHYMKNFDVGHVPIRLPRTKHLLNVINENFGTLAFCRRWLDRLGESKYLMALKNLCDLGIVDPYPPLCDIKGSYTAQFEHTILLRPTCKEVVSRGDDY

Compound in this assay: Cc1nc(Nc2ncc(C(=O)Nc3c(C)cccc3Cl)s2)cc(N2CCN(CCO)CC2)n1 [dasatinib]
Briefly: log2 fold change, soluble protein after heating vs DMSO (PISA); higher = thermal stabilisation; K562 lysate, 10 uM; active = over 0.2 and 3.5 SD of the protein, either way, in both replicates (recomputed). In outline: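 Quantification was by TMTpro 16plex LC-MS/MS with equalised channel sums, applied to the supernatant after 21,000xg for 90 min. Samples were crude K562 extract at 1 mg/mL protein in PBS pH 7.4 with 1 mM MgCl2, treated with 10 μM compound for 30 min, heated for 3 min across 48°C-58°C, pooled and brought to 0.5% NP-40 at 4°C. Values are log-two fold changes in thermal stability relative to solvent controls, from duplicates.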
Regarding MCMBP (UniProt Q9BTE3), the log2 fold change is inactive: -0.031.
Consider MED20 (UniProt Q9H944), for which the log2 fold change is inactive: 0.035.
The value for METTL5 (UniProt Q9NRN9) was inactive: -0.034.
In the case of MDH2 (UniProt P40926), the log2 fold change is inactive: 0.032.
Regarding METTL14 (UniProt Q9HCE5), the log2 fold change was inactive: 0.049.
As to MECR (UniProt Q9BV79), the log2 fold change was inactive: -0.03.
METAP1D (UniProt Q6UB28): the log2 fold change is inactive: -0.016.
Take MEF2A (UniProt Q02078): the log2 fold change is inactive: -0.042.
The value for MFSD10 (UniProt Q14728) was inactive: 0.028; that for MCL1 (UniProt Q07820) was inactive: -0.068; that for MCM6 (UniProt Q14566) was inactive: -0.006.
The value for MED7 (UniProt O43513) was inactive: -0.056; that for MFSD4B (UniProt Q5TF39) was inactive: -0.077.
Turning to ME2 (UniProt P23368), the log2 fold change was inactive: 0.089.
The value for METTL2A (UniProt Q96IZ6) was inactive: 0.044; that for MFN2 (UniProt O95140) was inactive: -0.055; that for MED8 isoform 2 (UniProt Q96G25) was inactive: -0.017.
As for MED4 (UniProt Q9NPJ6), the figure is inactive: 0.025; as for METTL16 (UniProt Q86W50), inactive: -0.001; as for MEF2C isoform 5 (UniProt Q06413), inactive: 0.016.
Take MCUR1 (UniProt Q96AQ8): the log2 fold change is inactive: -0.021.
As for METAP2 (UniProt P50579), the figure is inactive: 0.04; as for MBD3 (UniProt O95983), inactive: -0.026.

The record behind these values is the supplement of paper PMC10849652.
